Measurements taken from patent US20180177845A1, “METHOD FOR TREATMENT OR PREVENTION OF A CANCER” (priority 2016, published 2018).
No constants are given. Whether binding was seen depends on the method and setting. For some assays here: Binding seen in cells or lysates may run through a third protein. Some results given as binding are weak or reduced against the parent protein; the word gives no strength. For some assays here: Where a sequence is shown, tags or fusion partners need not be part of it. Values belong to the binder of their own block, whether it stands above or below them.

Protein sequences, listed by entry. Tags and fused reporters are not part of them. Residues count along the entry.
UniProt Q05397, residues 2-1052: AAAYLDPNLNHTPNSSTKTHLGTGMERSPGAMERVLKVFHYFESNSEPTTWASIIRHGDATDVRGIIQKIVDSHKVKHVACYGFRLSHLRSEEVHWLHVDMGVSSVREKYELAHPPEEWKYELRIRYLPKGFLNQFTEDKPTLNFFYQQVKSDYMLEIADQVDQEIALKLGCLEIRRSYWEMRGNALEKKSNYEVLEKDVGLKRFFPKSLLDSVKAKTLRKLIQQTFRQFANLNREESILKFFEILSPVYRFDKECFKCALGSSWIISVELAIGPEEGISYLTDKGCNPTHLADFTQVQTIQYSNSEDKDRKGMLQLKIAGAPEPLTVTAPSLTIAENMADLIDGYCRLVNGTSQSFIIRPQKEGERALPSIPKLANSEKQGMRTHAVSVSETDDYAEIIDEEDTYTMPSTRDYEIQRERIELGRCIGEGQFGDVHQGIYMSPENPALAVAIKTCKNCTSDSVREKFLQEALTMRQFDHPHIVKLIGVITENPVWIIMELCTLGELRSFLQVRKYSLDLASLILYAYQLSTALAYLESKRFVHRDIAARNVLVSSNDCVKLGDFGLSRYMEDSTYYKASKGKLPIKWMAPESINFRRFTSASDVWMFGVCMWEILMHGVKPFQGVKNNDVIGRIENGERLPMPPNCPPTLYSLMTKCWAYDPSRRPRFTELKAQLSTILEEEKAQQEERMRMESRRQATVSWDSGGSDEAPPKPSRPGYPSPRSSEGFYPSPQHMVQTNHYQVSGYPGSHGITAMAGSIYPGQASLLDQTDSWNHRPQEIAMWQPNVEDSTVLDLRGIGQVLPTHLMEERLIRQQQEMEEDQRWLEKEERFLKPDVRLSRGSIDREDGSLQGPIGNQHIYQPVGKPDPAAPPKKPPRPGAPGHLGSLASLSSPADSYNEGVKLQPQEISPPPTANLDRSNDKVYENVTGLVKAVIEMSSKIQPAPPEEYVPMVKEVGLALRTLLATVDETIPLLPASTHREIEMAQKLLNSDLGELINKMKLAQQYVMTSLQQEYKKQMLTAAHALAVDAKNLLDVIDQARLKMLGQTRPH

Key:
[1] = target: focal adhesion kinase (FAK) (human) (UniProt Q05397); assay: HA-tagged β4-cyto in HEK-293 cells (FIG. 9F)
Myc-tagged β4 integrin = Myc-tagged β4 integrin (UniProt P16144); assay: far-Western on immunoprecipitated exogenous Myc-tagged β4 integrin (FIG. 1(h))
β4 integrin (human) [2] = target: β4 integrin (human) (UniProt P16144); assay: Ni-bead pull-down from MDA-MB-231 lysate, anti-β4 integrin Western blot (FIG. 1(g))
β4 integrin (human) [3] = target: β4 integrin (human) (UniProt P16144); assay: far-Western on immunoprecipitated endogenous β4 integrin and in vitro pull-down (FIG. 1(c), 1(h))
β4 integrin (human) [4] = target: β4 integrin (human) (UniProt P16144); assay: GST pull-down from HCT-116 lysate, anti-β4 integrin Western blot (FIG. 9(C))

- binding [1]: binds
B1: β4 integrin cytodomain (protein, not shown: small tags and cut ends)
chain: NNMQRPGFATHAASINPTELVPYGLSLRLARLCTENLLKPDTRECAQLRQEVEENLNEVYRQISGVHKLQQTKFRQQPNAGKKQDHTIVDTVLMAPRSAKPALLKLTEKQVEQRAFHDLKVAPGYYTLTADQDARGMVEFQEGVELVDVRVPLFIRPEDDDEKQLLVEAIDVPAGTATLGRRLVNITIIKEQARDVVSFEQPEFSVSRGDQVARIPVIRRVLDGGKSQVSYRTQDGTAQGNRDYIPVEGELLFQPGEAWKELQVKLLELQEVDSLLRGRQVRRFHVQLSNPKFGAHLGQPHSTTIIIRDPDELDRSFTSQMLSSQPPPHGDLGAPQNPNAKAAGSRKIHFNWLPPSGKPMGYRVKYWIQGDSESEAHLLDSKVPSVELTNLYPYC

- binding (Myc-tagged β4 integrin): binds
- binding (β4 integrin (human) [2]): binds
- binding (β4 integrin (human) [3]): binds
B2: His-tagged FAK/N400 (protein, not shown: small tags and cut ends)
chain: MAAAYLDPNLNHTPSSSAKTHLGTGMERSPGAMERVLKVFHYFENSSEPTTWASIIRHGDATDVRGIIQKIVDCHKVKNVACYGLRLSHLQSEEVHWLHLDMGVSNVREKFELAHPPEEWKYELRIRYLPKGFLNQFTEDKPTLNFFYQQVKNDYMLEIADQVDQEIALKLGCLEIRRSYGEMRGNALEKKSNYEVLEKDVGLRRFFPKSLLDSVKAKTLRKLIQQTFRQFANLNREESILKFFEILSPVYRFDKECFKCALGSSWIISVELAIGPEEGISYLTDKGANPTHLADFNQVQTIQYSNSEDKDRKGMLQLKIAGAPEPLTVTAPSLTIAENMADLIDGYCRLVNGATQSFIIRPQKEGERALPSIPKLANNEKQGVRSHTVSVSETDDYAEI

- binding (β4 integrin (human) [4]): binds
B3: GST-FAK/N400 (protein, not shown: a dimerising Fc or GST)
chain: MAAAYLDPNLNHTPSSSAKTHLGTGMERSPGAMERVLKVFHYFENSSEPTTWASIIRHGDATDVRGIIQKIVDCHKVKNVACYGLRLSHLQSEEVHWLHLDMGVSNVREKFELAHPPEEWKYELRIRYLPKGFLNQFTEDKPTLNFFYQQVKNDYMLEIADQVDQEIALKLGCLEIRRSYGEMRGNALEKKSNYEVLEKDVGLRRFFPKSLLDSVKAKTLRKLIQQTFRQFANLNREESILKFFEILSPVYRFDKECFKCALGSSWIISVELAIGPEEGISYLTDKGANPTHLADFNQVQTIQYSNSEDKDRKGMLQLKIAGAPEPLTVTAPSLTIAENMADLIDGYCRLVNGATQSFIIRPQKEGERALPSIPKLANNEKQGVRSHTVSVSETDDYAEI
